This is one part of the list.
Compound: CC1Cc2ccccc2N1C(=O)C1CCCN(C1)C(=O)CCl (mixture of isomers) [TRIM25 ligand 11 (diastereomer mixture)]
Assay: probe-labelled cysteine peptide fold change vs DMSO (competition) (log2 fold change); higher = less target engagement (more negative = stronger competition)
Conditions: THP-1, incubation time: 4 h
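Also: competitive chemoproteomic profiling in live THP-1 cells with an iodoacetamide desthiobiotin (IA-DTB) probe, comparing probe-labelled peptide intensities in compound-treated cells against DMSO-treated controls.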

Amino acid sequences for entries named in this document (tags omitted). A change or cut given only in a name is not applied to a line headed by its entry.
UniProt Q9Y6I4: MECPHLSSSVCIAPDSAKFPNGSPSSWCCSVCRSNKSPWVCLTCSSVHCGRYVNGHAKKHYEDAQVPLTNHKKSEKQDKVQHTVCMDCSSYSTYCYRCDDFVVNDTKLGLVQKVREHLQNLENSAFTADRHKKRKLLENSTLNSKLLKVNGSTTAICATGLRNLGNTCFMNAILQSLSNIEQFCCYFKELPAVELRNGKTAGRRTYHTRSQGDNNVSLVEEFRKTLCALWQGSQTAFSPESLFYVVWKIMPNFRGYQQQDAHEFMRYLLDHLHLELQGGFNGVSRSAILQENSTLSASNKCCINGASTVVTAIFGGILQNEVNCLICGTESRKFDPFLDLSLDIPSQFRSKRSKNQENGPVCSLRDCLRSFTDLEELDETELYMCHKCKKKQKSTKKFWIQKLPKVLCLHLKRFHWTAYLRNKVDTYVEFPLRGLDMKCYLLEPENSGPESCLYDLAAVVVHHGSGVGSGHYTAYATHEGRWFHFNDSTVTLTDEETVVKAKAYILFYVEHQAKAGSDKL
UniProt Q8N806: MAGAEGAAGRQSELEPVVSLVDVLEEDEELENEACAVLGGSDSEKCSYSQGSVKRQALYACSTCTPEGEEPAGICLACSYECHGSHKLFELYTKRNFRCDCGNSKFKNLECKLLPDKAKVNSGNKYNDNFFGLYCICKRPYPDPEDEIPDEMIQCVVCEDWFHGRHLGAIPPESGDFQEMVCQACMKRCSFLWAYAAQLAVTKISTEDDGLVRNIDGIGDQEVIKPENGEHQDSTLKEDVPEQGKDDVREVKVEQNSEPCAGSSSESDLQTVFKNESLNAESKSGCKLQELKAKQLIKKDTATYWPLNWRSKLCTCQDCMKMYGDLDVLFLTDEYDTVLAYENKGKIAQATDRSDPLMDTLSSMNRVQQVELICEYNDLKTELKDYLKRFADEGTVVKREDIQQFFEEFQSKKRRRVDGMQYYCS
UniProt P31930: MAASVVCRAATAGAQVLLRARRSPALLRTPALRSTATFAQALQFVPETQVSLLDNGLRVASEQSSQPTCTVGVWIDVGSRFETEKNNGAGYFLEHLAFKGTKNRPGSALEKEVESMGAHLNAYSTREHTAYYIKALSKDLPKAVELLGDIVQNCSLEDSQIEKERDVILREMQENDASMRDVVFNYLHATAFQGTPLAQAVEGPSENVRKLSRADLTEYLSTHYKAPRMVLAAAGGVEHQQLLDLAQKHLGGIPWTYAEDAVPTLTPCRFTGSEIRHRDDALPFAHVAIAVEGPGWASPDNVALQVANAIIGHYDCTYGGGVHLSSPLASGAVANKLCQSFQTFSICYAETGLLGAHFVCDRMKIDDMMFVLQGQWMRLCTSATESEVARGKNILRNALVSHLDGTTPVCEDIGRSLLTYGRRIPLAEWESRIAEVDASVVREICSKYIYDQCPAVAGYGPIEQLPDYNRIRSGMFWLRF
UniProt Q9HAU5: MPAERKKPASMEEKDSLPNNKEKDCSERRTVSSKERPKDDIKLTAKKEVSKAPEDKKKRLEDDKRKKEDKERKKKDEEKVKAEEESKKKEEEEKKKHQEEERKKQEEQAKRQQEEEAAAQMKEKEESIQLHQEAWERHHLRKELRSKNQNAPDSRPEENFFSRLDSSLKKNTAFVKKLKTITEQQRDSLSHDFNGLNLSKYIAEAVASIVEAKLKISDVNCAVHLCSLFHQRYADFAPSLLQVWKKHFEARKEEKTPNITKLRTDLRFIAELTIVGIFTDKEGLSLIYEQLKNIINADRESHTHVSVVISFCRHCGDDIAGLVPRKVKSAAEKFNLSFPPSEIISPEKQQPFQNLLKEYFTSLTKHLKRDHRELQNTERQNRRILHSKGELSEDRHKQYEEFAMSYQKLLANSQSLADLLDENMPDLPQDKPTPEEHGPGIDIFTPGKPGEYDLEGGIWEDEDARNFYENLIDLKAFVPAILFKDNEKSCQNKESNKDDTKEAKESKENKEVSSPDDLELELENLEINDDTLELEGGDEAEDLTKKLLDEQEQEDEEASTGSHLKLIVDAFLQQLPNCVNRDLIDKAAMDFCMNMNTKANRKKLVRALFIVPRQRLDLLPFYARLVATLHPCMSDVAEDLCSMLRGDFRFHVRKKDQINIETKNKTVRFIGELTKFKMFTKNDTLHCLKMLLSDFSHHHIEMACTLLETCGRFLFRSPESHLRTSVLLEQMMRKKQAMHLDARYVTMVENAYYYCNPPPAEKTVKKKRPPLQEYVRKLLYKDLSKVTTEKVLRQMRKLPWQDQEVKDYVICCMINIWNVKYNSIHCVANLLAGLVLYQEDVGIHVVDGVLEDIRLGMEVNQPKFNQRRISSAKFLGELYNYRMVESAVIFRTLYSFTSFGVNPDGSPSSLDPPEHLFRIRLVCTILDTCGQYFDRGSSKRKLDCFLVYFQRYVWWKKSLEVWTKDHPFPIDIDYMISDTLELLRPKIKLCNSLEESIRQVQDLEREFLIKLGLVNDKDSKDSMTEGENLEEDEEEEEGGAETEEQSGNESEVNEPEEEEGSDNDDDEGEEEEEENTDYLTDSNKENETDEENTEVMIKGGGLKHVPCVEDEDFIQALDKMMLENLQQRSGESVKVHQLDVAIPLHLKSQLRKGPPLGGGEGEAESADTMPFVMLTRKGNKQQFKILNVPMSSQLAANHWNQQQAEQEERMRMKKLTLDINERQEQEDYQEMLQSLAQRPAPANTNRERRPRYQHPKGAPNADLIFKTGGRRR
UniProt Q9BRT2: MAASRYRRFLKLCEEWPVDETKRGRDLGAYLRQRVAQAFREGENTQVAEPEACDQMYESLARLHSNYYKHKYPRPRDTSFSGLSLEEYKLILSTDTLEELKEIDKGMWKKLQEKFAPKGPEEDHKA
UniProt Q9Y3C8: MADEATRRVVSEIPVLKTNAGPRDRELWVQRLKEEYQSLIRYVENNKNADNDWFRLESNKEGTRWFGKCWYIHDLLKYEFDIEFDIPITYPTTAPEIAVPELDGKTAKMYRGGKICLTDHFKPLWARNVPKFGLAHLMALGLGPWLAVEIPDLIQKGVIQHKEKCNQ
UniProt Q9NUQ7: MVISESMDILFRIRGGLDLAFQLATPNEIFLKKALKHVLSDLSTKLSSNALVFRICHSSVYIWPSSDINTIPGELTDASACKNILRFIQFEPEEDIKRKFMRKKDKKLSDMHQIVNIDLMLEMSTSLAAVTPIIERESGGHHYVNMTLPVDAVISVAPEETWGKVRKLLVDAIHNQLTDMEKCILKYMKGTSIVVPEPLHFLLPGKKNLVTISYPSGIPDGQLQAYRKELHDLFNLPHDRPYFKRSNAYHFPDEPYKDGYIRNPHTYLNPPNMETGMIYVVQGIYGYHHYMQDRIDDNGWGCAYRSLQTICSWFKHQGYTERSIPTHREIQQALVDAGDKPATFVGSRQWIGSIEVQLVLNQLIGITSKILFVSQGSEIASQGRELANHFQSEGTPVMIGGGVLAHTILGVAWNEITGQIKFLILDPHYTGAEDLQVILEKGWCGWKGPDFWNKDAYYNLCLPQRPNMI
UniProt P35125: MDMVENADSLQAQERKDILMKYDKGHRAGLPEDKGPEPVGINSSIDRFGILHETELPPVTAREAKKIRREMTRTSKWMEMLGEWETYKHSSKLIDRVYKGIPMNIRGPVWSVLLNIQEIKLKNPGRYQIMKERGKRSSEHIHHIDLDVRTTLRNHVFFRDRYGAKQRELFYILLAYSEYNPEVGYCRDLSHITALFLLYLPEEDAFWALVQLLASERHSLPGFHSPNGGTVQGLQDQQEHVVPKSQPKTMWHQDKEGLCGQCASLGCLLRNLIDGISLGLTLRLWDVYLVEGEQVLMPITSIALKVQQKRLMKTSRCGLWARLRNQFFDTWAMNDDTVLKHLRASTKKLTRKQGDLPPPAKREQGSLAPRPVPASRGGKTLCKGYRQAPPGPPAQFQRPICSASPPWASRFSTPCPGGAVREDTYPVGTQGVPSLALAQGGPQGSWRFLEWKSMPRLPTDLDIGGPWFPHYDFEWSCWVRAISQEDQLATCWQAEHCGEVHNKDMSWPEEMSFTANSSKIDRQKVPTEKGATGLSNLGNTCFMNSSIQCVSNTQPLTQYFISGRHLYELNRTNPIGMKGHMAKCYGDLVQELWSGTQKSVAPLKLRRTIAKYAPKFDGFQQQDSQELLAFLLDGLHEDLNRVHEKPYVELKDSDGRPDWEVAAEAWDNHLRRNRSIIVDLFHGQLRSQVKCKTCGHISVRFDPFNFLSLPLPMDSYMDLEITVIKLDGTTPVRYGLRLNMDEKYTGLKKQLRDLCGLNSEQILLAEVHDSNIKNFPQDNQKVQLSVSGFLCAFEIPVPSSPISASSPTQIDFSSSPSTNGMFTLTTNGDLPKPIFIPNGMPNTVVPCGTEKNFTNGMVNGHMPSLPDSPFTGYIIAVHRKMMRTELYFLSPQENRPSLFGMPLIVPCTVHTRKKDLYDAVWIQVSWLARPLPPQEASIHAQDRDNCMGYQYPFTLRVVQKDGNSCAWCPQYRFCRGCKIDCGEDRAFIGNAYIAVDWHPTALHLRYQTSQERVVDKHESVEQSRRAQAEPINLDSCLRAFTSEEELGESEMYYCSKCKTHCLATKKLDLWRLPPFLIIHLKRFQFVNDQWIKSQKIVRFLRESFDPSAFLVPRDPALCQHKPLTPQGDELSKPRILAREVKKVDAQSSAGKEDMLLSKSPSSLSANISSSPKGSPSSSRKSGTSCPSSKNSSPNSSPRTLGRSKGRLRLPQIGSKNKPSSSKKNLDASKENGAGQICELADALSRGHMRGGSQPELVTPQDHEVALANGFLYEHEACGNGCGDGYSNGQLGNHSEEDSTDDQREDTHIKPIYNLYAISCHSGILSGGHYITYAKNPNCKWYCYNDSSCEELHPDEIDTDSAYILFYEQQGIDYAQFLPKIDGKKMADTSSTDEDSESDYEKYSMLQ
UniProt P45974: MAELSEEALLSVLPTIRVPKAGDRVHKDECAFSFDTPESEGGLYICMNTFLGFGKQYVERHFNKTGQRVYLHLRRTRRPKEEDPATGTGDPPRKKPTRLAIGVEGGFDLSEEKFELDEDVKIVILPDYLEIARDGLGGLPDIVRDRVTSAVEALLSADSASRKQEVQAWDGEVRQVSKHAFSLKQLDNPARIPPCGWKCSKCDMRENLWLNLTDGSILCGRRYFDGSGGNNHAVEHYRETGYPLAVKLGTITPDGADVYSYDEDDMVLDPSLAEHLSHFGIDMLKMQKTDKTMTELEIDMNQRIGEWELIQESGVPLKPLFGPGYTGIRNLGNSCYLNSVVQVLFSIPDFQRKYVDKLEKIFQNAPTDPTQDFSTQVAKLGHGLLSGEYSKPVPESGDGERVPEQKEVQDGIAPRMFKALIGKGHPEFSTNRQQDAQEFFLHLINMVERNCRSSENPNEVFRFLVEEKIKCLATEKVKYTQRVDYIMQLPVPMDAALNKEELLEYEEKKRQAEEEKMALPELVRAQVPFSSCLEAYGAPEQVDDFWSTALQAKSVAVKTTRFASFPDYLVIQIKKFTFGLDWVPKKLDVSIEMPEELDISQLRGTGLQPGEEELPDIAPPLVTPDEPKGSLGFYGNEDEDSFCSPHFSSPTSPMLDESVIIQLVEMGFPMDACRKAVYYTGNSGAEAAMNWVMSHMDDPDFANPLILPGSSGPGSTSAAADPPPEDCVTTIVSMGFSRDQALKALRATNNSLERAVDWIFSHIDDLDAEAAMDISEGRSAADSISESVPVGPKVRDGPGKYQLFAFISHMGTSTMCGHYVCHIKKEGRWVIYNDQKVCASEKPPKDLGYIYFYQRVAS
UniProt Q92890: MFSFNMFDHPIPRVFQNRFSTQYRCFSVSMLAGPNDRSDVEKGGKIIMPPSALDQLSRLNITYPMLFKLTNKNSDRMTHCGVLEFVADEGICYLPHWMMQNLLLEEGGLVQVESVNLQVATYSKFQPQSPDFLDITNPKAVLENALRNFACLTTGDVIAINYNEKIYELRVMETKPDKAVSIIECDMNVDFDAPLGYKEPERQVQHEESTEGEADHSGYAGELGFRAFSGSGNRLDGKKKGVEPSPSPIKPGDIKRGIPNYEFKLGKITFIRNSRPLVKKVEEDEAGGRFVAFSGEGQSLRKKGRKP
UniProt Q04323: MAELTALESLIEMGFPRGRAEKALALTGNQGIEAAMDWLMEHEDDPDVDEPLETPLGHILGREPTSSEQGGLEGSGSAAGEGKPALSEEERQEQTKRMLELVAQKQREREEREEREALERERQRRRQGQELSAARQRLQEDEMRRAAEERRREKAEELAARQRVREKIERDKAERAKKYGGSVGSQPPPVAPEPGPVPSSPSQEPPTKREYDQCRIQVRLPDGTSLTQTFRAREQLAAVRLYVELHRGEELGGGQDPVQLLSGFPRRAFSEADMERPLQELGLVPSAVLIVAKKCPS

UGGT1_Q9NYU2_159_KTCESDTLEALLLTASERPK (UniProt Q9NYU2)
probe-labelled cysteine peptide fold change (10 µM): 0.0177
probe-labelled cysteine peptide fold change (50 µM): -0.00925

UMPS_P11172_278_ELLQLADALGPSICMLK (UniProt P11172)
probe-labelled cysteine peptide fold change (10 µM): 0.255
probe-labelled cysteine peptide fold change (50 µM): 0.07

USP3_Q9Y6I4_98_CDDFVVNDTK (UniProt Q9Y6I4)
probe-labelled cysteine peptide fold change (10 µM): 0.0259
probe-labelled cysteine peptide fold change (50 µM): -0.0695

UBR7_Q8N806_46_CSYSQGSVKR (UniProt Q8N806)
probe-labelled cysteine peptide fold change (10 µM): -0.138
probe-labelled cysteine peptide fold change (50 µM): -0.215

UBR7_Q8N806_99+101_CDCGNSK (UniProt Q8N806)
probe-labelled cysteine peptide fold change (10 µM): -0.0898
probe-labelled cysteine peptide fold change (50 µM): -0.168

UQCRC1_P31930_154_AVELLGDIVQNCSLEDSQIEK (UniProt P31930)
probe-labelled cysteine peptide fold change (10 µM): 0.0711
probe-labelled cysteine peptide fold change (50 µM): 0.102

UPF2_Q9HAU5_990_LCNSLEESIR (UniProt Q9HAU5)
probe-labelled cysteine peptide fold change (10 µM): -0.116
probe-labelled cysteine peptide fold change (50 µM): 0.04

UQCC2_Q9BRT2_53_EGENTQVAEPEACDQMYESLAR (UniProt Q9BRT2)
probe-labelled cysteine peptide fold change (10 µM): 0.0837
probe-labelled cysteine peptide fold change (50 µM): 0.297

USP19_O94966_1169_EEQLPSYDLYAVINHYGGMIGGHYTACAR (UniProt O94966)
probe-labelled cysteine peptide fold change (10 µM): 0.0466
probe-labelled cysteine peptide fold change (50 µM): 0.12

UFC1_Q9Y3C8_69_CWYIHDLLK (UniProt Q9Y3C8)
probe-labelled cysteine peptide fold change (10 µM): 0.0109
probe-labelled cysteine peptide fold change (50 µM): 0.124

UBR7_Q8N806_155_RPYPDPEDEIPDEMIQCVVCEDWFHGR (UniProt Q8N806)
probe-labelled cysteine peptide fold change (10 µM): 0.0185
probe-labelled cysteine peptide fold change (50 µM): -0.0524

USP24_Q9UPU5_1628_CSTANSR (UniProt Q9UPU5)
probe-labelled cysteine peptide fold change (10 µM): -0.0433
probe-labelled cysteine peptide fold change (50 µM): -0.0624

UFSP2_Q9NUQ7_302_IDDNGWGCAYR (UniProt Q9NUQ7)
probe-labelled cysteine peptide fold change (10 µM): 0.356
probe-labelled cysteine peptide fold change (50 µM): 0.247

USP6_P35125_1036_AQAEPINLDSCLR (UniProt P35125)
probe-labelled cysteine peptide fold change (10 µM): -0.111
probe-labelled cysteine peptide fold change (50 µM): -0.0406

USP5_P45974_838_VCASEKPPK (UniProt P45974)
probe-labelled cysteine peptide fold change (10 µM): 0.0128
probe-labelled cysteine peptide fold change (50 µM): -0.0647

UFD1_Q92890_25_CFSVSMLAGPNDRSDVEK (UniProt Q92890)
probe-labelled cysteine peptide fold change (10 µM): -0.255
probe-labelled cysteine peptide fold change (50 µM): -0.024

USP47_Q96K76_314_CLECGYEGWR (UniProt Q96K76)
probe-labelled cysteine peptide fold change (10 µM): 0.102
probe-labelled cysteine peptide fold change (50 µM): 0.285

UBXN1_Q04323_214_EYDQCR (UniProt Q04323)
probe-labelled cysteine peptide fold change (10 µM): -0.0848
probe-labelled cysteine peptide fold change (50 µM): 0.0942

USO1_O60763_678_CQNEQLQTAVTQQVSQIQQHK (UniProt O60763)
probe-labelled cysteine peptide fold change (10 µM): 0.0982
probe-labelled cysteine peptide fold change (50 µM): -0.144

UNC13D_Q70J99_992_DLHPLFDETFEFLVPAEPCR (UniProt Q70J99)
probe-labelled cysteine peptide fold change (10 µM): -0.0665
probe-labelled cysteine peptide fold change (50 µM): -0.157

From the supplement of paper PMC12067093, “Discovery and optimisation of a covalent ligand for TRIM25 and its application to targeted protein ubiquitination” (Chemical Science, 2025)
